This is one part of the list.
Tests used:
Assay in all cases: log2 fold change, soluble protein after heating vs DMSO (PISA); higher = thermal stabilisation; K562 cells, 10 uM, 30 min; active = over 0.2 and 3.5 SD of the protein, either way, in both replicates (recomputed)
[1] = compound: COC1=CC=C(C=C1)CN2C=CC3=C2C=C(C=C3)C(=O)NO
Summary of the method: (§1)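 Quantification of soluble protein used TMTpro 16plex LC-MS/MS, with channel sums equalised. Samples were the supernatant after 21,000xg for 90 min of pooled aliquots from K562 cells (2×10^6 cells/mL) treated with 10 μM compound for 30 min, heated for 3 min over 48°C-58°C, and extracted in PBS with 0.5% NP-40 at 4°C. Values, from duplicates, describe thermal stability against control samples on a log2 fold-change scale.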

Amino acid sequences for entries named in this document (tags omitted). A change or cut given only in a name is not applied to a line headed by its entry.
UniProt P30049: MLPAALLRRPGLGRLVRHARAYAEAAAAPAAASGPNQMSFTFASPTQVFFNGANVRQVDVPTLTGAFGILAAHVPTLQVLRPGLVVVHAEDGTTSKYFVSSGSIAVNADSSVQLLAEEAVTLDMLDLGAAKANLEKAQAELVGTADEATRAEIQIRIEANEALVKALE
UniProt P21281, whole entry, looked up: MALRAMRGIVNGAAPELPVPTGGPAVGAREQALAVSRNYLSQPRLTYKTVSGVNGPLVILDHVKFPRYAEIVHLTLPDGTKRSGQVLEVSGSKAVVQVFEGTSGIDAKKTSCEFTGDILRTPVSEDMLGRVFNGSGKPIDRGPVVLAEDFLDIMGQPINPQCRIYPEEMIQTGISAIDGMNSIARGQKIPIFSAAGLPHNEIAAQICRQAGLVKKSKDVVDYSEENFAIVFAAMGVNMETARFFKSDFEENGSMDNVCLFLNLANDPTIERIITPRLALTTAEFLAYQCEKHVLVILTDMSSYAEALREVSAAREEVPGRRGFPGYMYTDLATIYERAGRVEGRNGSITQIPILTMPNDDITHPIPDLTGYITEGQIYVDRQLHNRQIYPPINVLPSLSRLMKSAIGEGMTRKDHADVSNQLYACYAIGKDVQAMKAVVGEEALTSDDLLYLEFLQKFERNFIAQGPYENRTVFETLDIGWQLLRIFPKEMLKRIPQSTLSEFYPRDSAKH
UniProt Q9BSB4: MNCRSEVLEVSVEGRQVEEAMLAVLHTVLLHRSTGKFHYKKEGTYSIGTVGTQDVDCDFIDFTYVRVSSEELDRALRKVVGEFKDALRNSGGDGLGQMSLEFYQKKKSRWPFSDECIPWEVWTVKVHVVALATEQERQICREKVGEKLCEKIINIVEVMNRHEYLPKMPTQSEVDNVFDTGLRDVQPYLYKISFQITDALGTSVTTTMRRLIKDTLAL
UniProt O75964: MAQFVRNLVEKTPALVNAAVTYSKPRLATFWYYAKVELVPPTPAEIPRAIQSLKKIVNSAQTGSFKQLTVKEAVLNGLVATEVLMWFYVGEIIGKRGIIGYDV
UniProt Q8IZT6: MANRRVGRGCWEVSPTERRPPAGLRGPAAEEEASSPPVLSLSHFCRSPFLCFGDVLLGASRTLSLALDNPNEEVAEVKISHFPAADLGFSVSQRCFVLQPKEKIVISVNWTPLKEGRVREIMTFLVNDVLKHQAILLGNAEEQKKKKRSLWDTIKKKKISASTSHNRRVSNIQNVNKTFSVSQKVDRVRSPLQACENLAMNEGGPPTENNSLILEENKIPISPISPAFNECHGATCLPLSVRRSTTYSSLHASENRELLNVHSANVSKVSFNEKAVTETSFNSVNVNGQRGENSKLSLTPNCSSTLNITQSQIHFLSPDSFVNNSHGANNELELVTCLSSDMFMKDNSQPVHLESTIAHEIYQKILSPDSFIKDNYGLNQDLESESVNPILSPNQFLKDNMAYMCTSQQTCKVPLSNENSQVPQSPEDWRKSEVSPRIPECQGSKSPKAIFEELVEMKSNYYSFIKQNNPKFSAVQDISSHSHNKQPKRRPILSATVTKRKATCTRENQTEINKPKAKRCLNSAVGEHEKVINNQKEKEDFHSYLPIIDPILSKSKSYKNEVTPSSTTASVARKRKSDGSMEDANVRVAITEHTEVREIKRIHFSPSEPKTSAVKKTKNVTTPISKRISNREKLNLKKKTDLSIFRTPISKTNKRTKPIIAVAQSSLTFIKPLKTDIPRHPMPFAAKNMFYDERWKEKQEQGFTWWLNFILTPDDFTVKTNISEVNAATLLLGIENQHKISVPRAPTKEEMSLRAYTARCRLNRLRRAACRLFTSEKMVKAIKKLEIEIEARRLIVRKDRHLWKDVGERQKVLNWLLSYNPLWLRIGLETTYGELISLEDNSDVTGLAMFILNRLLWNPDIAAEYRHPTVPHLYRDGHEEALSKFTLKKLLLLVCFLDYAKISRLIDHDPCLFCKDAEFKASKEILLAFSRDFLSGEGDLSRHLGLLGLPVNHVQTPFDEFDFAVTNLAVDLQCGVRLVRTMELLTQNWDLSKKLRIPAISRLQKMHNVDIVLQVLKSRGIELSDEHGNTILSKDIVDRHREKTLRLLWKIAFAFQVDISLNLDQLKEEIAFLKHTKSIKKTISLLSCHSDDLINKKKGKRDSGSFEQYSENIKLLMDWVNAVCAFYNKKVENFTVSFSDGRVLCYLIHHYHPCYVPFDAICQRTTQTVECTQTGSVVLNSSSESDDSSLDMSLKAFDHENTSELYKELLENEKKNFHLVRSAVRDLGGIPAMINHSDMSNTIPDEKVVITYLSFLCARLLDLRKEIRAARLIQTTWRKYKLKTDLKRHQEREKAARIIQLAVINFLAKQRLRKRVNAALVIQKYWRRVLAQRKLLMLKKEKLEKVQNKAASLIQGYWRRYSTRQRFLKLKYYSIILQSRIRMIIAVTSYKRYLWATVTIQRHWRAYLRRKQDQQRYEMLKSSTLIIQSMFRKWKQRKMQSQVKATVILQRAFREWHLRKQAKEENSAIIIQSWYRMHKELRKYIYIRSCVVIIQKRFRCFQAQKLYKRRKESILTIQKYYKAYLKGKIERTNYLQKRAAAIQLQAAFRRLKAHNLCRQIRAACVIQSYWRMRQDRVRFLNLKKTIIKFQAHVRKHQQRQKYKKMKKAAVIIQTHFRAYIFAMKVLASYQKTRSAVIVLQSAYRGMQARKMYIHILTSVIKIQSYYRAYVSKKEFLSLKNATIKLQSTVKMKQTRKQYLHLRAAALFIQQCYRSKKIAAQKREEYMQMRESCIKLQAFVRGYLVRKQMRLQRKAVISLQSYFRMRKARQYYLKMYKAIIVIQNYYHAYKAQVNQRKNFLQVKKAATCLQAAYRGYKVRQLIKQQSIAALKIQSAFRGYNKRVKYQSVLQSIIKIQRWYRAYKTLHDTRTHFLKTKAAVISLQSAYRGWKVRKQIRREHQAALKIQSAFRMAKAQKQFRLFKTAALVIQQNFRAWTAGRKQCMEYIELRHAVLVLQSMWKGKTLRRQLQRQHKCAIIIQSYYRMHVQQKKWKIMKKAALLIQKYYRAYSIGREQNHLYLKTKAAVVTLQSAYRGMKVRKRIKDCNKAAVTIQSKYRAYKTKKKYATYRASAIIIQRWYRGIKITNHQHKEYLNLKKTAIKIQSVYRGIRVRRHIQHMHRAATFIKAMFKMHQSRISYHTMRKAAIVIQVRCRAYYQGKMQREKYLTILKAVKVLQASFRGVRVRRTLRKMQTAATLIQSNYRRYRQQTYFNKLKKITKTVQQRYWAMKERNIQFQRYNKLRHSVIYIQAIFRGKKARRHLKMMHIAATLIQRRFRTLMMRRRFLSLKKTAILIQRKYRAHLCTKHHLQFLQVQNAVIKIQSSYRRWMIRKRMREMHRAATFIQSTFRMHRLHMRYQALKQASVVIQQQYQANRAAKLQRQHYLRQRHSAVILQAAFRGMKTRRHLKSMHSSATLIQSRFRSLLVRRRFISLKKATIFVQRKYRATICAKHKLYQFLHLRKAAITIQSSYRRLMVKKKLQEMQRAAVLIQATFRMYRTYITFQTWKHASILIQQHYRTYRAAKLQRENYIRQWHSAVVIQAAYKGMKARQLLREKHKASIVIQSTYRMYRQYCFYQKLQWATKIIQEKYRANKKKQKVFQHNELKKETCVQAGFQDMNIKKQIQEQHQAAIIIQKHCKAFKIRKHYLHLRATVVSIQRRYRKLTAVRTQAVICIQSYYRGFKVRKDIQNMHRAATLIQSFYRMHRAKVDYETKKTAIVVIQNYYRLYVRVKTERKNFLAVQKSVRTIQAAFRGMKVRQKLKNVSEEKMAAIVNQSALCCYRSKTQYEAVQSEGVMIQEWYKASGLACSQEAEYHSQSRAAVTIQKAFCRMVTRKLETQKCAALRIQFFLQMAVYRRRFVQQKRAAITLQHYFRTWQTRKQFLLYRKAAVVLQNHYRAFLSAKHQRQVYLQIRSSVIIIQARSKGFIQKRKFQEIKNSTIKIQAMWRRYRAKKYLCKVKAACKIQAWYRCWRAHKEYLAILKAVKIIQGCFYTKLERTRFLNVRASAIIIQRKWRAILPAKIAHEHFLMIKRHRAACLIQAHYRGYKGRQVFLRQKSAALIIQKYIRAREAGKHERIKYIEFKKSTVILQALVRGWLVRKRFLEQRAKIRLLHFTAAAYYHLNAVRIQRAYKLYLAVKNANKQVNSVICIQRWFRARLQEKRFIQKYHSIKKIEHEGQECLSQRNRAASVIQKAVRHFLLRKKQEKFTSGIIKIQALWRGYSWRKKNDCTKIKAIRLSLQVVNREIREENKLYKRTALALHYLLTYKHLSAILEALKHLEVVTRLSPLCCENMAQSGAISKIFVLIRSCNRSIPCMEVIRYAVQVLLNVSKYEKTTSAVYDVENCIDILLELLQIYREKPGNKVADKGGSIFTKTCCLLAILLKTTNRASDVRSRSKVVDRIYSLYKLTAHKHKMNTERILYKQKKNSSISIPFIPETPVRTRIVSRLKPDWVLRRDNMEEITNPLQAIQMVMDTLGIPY
UniProt O95260: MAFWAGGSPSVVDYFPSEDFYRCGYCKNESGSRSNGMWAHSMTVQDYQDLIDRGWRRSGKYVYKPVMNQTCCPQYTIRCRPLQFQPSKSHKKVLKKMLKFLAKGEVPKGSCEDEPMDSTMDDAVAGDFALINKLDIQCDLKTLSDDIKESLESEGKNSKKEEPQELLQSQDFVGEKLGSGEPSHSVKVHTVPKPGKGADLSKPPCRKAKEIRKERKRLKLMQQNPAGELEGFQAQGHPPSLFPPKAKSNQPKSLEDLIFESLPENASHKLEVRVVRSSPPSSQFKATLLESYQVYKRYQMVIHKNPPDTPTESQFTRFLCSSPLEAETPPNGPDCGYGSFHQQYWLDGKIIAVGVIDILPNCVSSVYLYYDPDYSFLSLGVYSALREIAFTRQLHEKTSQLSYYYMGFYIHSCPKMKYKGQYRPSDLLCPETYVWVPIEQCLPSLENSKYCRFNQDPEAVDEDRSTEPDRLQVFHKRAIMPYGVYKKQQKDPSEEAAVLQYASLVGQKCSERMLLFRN
UniProt Q15041, whole entry, looked up: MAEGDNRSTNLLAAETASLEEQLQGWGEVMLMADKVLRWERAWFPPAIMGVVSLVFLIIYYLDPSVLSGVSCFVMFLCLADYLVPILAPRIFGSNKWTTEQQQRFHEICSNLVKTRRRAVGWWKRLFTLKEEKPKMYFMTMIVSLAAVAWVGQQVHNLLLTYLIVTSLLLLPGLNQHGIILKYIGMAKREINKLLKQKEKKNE
UniProt P61421, whole entry, looked up: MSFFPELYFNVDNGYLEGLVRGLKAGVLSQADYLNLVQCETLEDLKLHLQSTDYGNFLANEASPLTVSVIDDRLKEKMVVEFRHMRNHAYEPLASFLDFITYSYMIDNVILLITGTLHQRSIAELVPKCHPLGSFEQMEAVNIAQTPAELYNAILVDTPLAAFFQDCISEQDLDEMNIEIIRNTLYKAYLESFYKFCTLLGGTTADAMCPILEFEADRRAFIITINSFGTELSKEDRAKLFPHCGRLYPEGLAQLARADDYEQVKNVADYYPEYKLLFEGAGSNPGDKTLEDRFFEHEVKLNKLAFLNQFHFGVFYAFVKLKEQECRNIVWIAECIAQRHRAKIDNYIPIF
UniProt Q5TC12: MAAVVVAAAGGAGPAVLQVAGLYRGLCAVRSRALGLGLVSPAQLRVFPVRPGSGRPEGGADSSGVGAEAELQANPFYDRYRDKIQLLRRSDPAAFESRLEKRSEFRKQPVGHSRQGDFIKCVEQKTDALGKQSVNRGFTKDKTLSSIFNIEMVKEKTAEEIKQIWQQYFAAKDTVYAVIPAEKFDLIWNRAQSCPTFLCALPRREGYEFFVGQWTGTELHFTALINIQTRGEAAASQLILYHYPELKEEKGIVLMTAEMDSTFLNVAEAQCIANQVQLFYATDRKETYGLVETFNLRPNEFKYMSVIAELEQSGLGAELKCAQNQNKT
UniProt Q9H993: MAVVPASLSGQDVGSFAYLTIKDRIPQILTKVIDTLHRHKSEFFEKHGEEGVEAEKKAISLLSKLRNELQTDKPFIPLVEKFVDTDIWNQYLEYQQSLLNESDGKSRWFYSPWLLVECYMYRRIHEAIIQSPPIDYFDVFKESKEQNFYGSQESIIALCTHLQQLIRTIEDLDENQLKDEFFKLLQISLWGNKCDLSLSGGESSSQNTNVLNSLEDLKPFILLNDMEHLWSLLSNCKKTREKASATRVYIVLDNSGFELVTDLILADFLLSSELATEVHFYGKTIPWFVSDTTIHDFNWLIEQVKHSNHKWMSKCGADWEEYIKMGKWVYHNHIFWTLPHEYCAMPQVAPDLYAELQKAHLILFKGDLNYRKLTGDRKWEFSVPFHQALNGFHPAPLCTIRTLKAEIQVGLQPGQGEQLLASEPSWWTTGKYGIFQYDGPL
UniProt Q9NXU5: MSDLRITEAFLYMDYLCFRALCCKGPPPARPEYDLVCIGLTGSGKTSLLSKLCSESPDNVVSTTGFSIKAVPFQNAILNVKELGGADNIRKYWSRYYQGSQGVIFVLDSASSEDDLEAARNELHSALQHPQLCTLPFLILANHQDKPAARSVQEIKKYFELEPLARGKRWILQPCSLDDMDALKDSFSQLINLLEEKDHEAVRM

[2] = compound: CON(C)C(=O)N1N=C(c2cc(F)ccc2F)S[C@@]1(CCCN)c1ccccc1 [filanesib]
Summary of the method: as §1

[3] = compound: CO[C@H]1C[C@@H]2CC[C@@H](C)[C@@](O)(O2)C(=O)C(=O)N2CCCC[C@H]2C(=O)O[C@H]([C@H](C)C[C@@H]2CC[C@H](n3cnnn3)[C@H](OC)C2)CC(=O)[C@H](C)/C=C(\C)[C@@H](O)[C@@H](OC)C(=O)[C@H](C)C[C@H](C)/C=C/C=C/C=C/1C [zotarolimus]
Summary of the method: as §1

[4] = compound: COc1cc(C(=O)O)ccc1NC(=O)[C@@H]1N[C@@H](CC(C)(C)C)[C@](C#N)(c2ccc(Cl)cc2F)[C@H]1c1cccc(Cl)c1F [idasanutlin]
Summary of the method: as §1

[5] = compound: COc1cc(Nc2ncc3c(n2)-c2ccc(Cl)cc2C(c2c(F)cccc2OC)=NC3)ccc1C(=O)O [alisertib]
Summary of the method: as §1

[6] = compound: COc1cc2nc(-c3cc(F)ccc3O)nc(N[C@@H]3CNC[C@H]3C(C)(C)O)c2cc1OC
Summary of the method: as §1

[7] = compound: COc1cc2ncnc(Nc3ccc(F)c(Cl)c3)c2cc1OCCCN1CCOCC1 [gefitinib]
Summary of the method: as §1

[8] = compound: COc1cccc2cc(-c3nc([C@H]4CC[C@H](C(=O)O)CC4)n4ncnc(N)c34)[nH]c12
Summary of the method: as §1

[9] = compound: CS(=O)(=O)CCNCc1ccc(-c2ccc3ncnc(Nc4ccc(OCc5cccc(F)c5)c(Cl)c4)c3c2)o1 [lapatinib]
Summary of the method: as §1

[10] = compound: CS(=O)(=O)N1CCN(Cc2cc3nc(-c4cccc5[nH]ncc45)nc(N4CCOCC4)c3s2)CC1 [pictilisib]
Summary of the method: as §1

[11] = compound: CS(=O)(=O)c1ccc(-c2cnc(N)c(C(=O)Nc3ccccc3)n2)cc1
Summary of the method: as §1

[12] = compound: C[C@@H](Oc1cc(-c2cnn(C3CCNCC3)c2)cnc1N)c1c(Cl)ccc(F)c1Cl [crizotinib]
Summary of the method: as §1

[13] = compound: C[C@@H]1COCCN1C2=NC(=NC(=C2)C3(CC3)S(=O)(=O)C)C4=C5C=CNC5=CC=C4
Summary of the method: as §1

[14] = compound: C[C@H](C1=CC=C(C=C1)C(=O)NC2=C3C=CNC3=NC=C2)N
Summary of the method: as §1

[15] = compound: C[C@H](Nc1ncnc2nc[nH]c12)c1cc2cccc(Cl)c2c(=O)n1-c1ccccc1 [duvelisib]
Summary of the method: as §1

[16] = compound: Cc1cc(Nc2cc(CN3CCOCC3)c3nc(C)c(Cc4ccc(Cl)cc4F)n3n2)n[nH]1 [gandotinib]
Summary of the method: as §1

[17] = compound: Cc1cc(Nc2cc(N3CCN(C)CC3)nc(Sc3ccc(NC(=O)C4CC4)cc3)n2)n[nH]1 [tozasertib]
Summary of the method: as §1

[18] = compound: Cc1cc(SCc2sc(-c3ccc(C(F)(F)F)cc3)nc2C)ccc1OCC(=O)O
Summary of the method: as §1

[19] = compound: Cc1ccc(-n2nc(C(C)(C)C)cc2NC(=O)Nc2ccc(OCCN3CCOCC3)c3ccccc23)cc1 [doramapimod]
Summary of the method: as §1

[20] = compound: Cc1ccc(C(=O)N(CCCN)[C@@H](c2nc3cc(Cl)ccc3c(=O)n2Cc2ccccc2)C(C)C)cc1 [ispinesib]
Summary of the method: as §1

Measured: log2 fold change

ATP5F1D (UniProt P30049)
inactive: [1] -0.028 | [2] 0.037 | [3] 0.011 | [4] -0.118 | [5] -0.076 | [6] -0.066 | [7] 0.009 | [8] 0.014 | [9] -0.063 | [10] 0 | [11] -0.02 | [12] 0.119 | [13] 0.113 | [14] -0.093 | [15] 0.068 | [16] 0.032 | [17] 0.051 | [18] -0.026 | [19] 0.038 | [20] 0.043

ATP5PB (UniProt P24539)
inactive: [1] 0.033 | [2] -0.036 | [3] -0.007 | [4] -0.015 | [5] -0.033 | [6] -0.037 | [7] 0.005 | [8] 0.036 | [9] 0.004 | [10] 0.005 | [11] 0.033 | [12] 0.084 | [13] 0.057 | [14] -0.03 | [15] -0.004 | [16] 0.004 | [17] 0.018 | [18] -0.006 | [19] -0.018 | [20] 0.026

ATP6V1B2 (UniProt P21281)
inactive: [1] 0.006 | [2] -0.018 | [3] 0.006 | [4] 0.039 | [5] -0.047 | [6] -0.089 | [7] -0.103 | [8] 0.013 | [9] -0.032 | [10] -0.039 | [11] -0.026 | [12] -0.153 | [13] -0.05 | [14] 0.03 | [15] -0.015 | [16] 0.109 | [17] 0.039 | [18] -0.024 | [19] 0.012 | [20] -0.119

ATG101 (UniProt Q9BSB4)
inactive: [1] -0.002 | [2] -0.066 | [3] -0.008 | [4] -0.048 | [5] -0.112 | [6] 0.005 | [7] -0.07 | [8] 0.041 | [9] -0.02 | [10] -0.046 | [11] -0.061 | [12] 0.018 | [13] -0.008 | [14] -0.012 | [15] 0.033 | [16] -0.007 | [17] -0.003 | [18] -0.044 | [19] -0.009 | [20] 0.044

ATG16L1 (UniProt Q676U5)
inactive: [1] 0.033 | [2] -0.083 | [3] -0.036 | [4] -0.04 | [5] -0.054 | [6] -0.003 | [7] -0.018 | [8] 0.057 | [9] 0.029 | [10] 0.03 | [11] 0.12 | [12] -0.1 | [13] 0.139 | [14] -0.035 | [15] 0.005 | [16] 0.013 | [17] -0.01 | [18] -0.017 | [19] 0 | [20] -0.003

ATP5MG (UniProt O75964)
inactive: [1] -0.134 | [2] -0.012 | [3] -0.064 | [4] 0.011 | [5] -0.028 | [6] 0.031 | [7] 0.011 | [8] 0.082 | [9] -0.094 | [10] 0.212 | [11] -0.004 | [12] 0.078 | [13] 0.09 | [14] 0.125 | [15] 0.066 | [16] 0.127 | [17] -0.017 | [18] -0.027 | [19] 0.029 | [20] -0.082

ATP1A3 isoform 3 (UniProt P13637)
inactive: [1] -0.026 | [2] 0.064 | [3] -0.052 | [4] 0.042 | [5] -0.023 | [6] 0.093 | [7] 0.032 | [8] 0.058 | [9] -0.042 | [10] 0.081 | [11] 0.032 | [12] 0.155 | [13] 0.019 | [14] -0.089 | [15] 0.04 | [16] -0.015 | [17] -0.075 | [18] -0.064 | [19] -0.022 | [20] 0.093

ASPM (UniProt Q8IZT6)
inactive: [1] -0.03 | [2] -0.075 | [3] 0.068 | [4] 0.095 | [5] 0.009 | [6] 0.017 | [7] 0.019 | [8] -0.051 | [9] 0.015 | [10] -0.117 | [11] 0 | [12] 0.039 | [13] 0.157 | [14] -0.11 | [15] 0.019 | [16] -0.206 | [17] -0.018 | [18] 0.015 | [19] -0.01 | [20] 0.026

ATE1 isoform 2 (UniProt O95260)
inactive: [1] -0.086 | [2] -0.012 | [3] -0.012 | [4] -0.031 | [5] -0.004 | [6] 0.054 | [7] 0.02 | [8] 0.025 | [9] -0.009 | [10] 0.155 | [11] 0.068 | [12] 0.048 | [13] -0.04 | [14] 0.026 | [15] 0.113 | [16] 0.216 | [17] 0.011 | [18] 0.07 | [19] -0.038 | [20] -0.002

ARL6IP1 (UniProt Q15041)
inactive: [1] 0.122 | [2] -0.131 | [3] 0.04 | [4] -0.026 | [5] -0.017 | [6] -0.045 | [7] -0.013 | [8] 0.062 | [9] -0.002 | [10] -0.064 | [11] -0.063 | [12] 0.175 | [13] 0.067 | [14] -0.042 | [15] -0.026 | [16] 0.026 | [17] -0.046 | [18] 0.039 | [19] -0.144 | [20] 0.09

2 neighbouring entries out of the list so far, quoted:
ATE1 isoform 2 (UniProt O95260)
inactive: [1] -0.086 | [2] -0.012 | [3] -0.012 | [4] -0.031 | [5] -0.004 | [6] 0.054 | [7] 0.02 | [8] 0.025 | [9] -0.009 | [10] 0.155 | [11] 0.068 | [12] 0.048 | [13] -0.04 | [14] 0.026 | [15] 0.113 | [16] 0.216 | [17] 0.011 | [18] 0.07 | [19] -0.038 | [20] -0.002

ARL6IP1 (UniProt Q15041)
inactive: [1] 0.122 | [2] -0.131 | [3] 0.04 | [4] -0.026 | [5] -0.017 | [6] -0.045 | [7] -0.013 | [8] 0.062 | [9] -0.002 | [10] -0.064 | [11] -0.063 | [12] 0.175 | [13] 0.067 | [14] -0.042 | [15] -0.026 | [16] 0.026 | [17] -0.046 | [18] 0.039 | [19] -0.144 | [20] 0.09

(continued)

ASCC1 isoform 2 (UniProt Q8N9N2)
inactive: [1] -0.032 | [2] -0.048 | [3] 0.004 | [4] -0.045 | [5] -0.075 | [6] -0.069 | [7] 0.051 | [8] 0.017 | [9] 0.044 | [10] -0.04 | [11] 0.113 | [12] -0.155 | [13] -0.042 | [14] 0.056 | [15] 0.011 | [16] -0.108 | [17] -0.057 | [18] 0.066 | [19] 0.049 | [20] -0.103

ATP6V0D1 (UniProt P61421)
inactive: [1] -0.069 | [2] 0.013 | [3] 0.079 | [4] 0.089 | [5] -0.045 | [6] -0.24 | [7] -0.123 | [8] -0.176 | [9] 0.002 | [10] -0.141 | [11] 0.009 | [12] -0.131 | [13] 0.006 | [14] 0.091 | [15] -0.039 | [16] 0.203 | [17] 0.061 | [18] 0.083 | [19] 0.211 | [20] -0.22

ARL6IP5 (UniProt O75915)
inactive: [1] -0.095 | [2] -0.101 | [3] -0.085 | [4] -0.066 | [5] -0.034 | [6] 0.078 | [7] -0.039 | [8] 0.006 | [9] -0.053 | [10] 0.014 | [11] -0.021 | [12] 0.013 | [13] -0.025 | [14] -0.066 | [15] 0.031 | [16] -0.046 | [17] -0.032 | [18] -0.007 | [19] -0.04 | [20] -0.143

ATPAF1 (UniProt Q5TC12)
inactive: [1] -0.005 | [2] -0.115 | [3] -0.023 | [4] -0.013 | [5] -0.013 | [6] -0.037 | [7] -0.019 | [8] 0.054 | [9] 0.057 | [10] 0.049 | [11] -0.042 | [12] -0.003 | [13] -0.026 | [14] -0.032 | [15] -0.026 | [16] -0.009 | [17] -0.082 | [18] -0.033 | [19] -0.05 | [20] 0

ARMT1 (UniProt Q9H993)
inactive: [1] 0.017 | [2] -0.033 | [3] -0.013 | [4] -0.021 | [5] -0.023 | [6] 0.039 | [7] -0.123 | [8] -0.173 | [9] -0.034 | [10] -0.024 | [11] 0.051 | [12] -0.562 | [13] 0.001 | [14] 0.186 | [15] -0.196 | [16] 0.193 | [17] 0.096 | [18] 0.225 | [19] 0.108 | [20] -0.443

ARL15 (UniProt Q9NXU5)
inactive: [1] 0.11 | [2] -0.008 | [3] -0.031 | [4] -0.019 | [5] 0.052 | [6] -0.03 | [7] -0.009 | [8] 0.055 | [9] 0.031 | [10] 0.101 | [11] 0.02 | [12] 0.005 | [13] 0.081 | [14] -0.145 | [15] 0.105 | [16] -0.039 | [17] -0.019 | [18] 0.034 | [19] -0.06 | [20] 0.07

— the supplement of paper PMC10849652
